The values below come from publication doi:10.64898/2025.12.13.694119.

Amino acid sequences for entries named in this document (tags omitted). Residues count along the entry.
UniProt P37231, residues 29-505: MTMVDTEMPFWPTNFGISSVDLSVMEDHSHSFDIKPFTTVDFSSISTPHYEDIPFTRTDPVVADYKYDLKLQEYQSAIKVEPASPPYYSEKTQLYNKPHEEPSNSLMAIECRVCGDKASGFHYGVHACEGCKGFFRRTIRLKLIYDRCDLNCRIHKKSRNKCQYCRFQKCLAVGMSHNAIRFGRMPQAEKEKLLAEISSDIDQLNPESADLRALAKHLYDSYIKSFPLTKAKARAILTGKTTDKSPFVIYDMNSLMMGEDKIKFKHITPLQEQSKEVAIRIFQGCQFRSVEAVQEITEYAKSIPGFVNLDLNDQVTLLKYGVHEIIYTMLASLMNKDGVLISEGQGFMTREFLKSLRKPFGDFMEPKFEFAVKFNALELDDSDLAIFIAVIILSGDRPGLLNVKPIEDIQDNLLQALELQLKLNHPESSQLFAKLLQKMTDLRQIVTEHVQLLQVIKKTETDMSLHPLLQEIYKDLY

No constants are given. Whether binding was seen depends on the method and setting. Binding seen in cells or lysates may run through a third protein. Some binding calls cover weakened binding; strength is not graded here.

The experiment deals with T1, CDC14B (UniProt O60729).
T1 sequence: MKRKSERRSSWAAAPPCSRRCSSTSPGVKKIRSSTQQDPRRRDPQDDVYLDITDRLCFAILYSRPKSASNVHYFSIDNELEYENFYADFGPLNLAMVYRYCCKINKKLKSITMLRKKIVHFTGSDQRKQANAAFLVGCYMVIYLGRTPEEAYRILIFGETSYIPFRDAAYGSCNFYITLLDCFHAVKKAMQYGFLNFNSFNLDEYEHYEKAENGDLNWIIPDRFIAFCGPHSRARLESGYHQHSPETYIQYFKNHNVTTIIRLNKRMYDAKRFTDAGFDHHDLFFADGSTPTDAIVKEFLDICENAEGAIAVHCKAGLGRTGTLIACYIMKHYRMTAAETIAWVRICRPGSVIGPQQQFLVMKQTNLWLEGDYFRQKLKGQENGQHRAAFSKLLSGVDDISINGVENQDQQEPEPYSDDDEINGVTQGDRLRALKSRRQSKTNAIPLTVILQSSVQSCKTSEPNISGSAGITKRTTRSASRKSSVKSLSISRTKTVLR
In words: co-IP.

Regarding PPARγ1 (from UniProt P37231-2 1-477), the binding entry is on record as “binds”.
